Measurements as given in PubChem BioAssay AID485349 (National Center for Advancing Translational Sciences (NCATS), 2010).
Hit rate of the full screen: of about 320,000 compounds, about 620 (0.19%) were called active. Inconclusive results, whose numbers are uncertain, are shown with a selection of clear calls. The call rests on the fitted dose curve; in most records, active means well fitted activation curve with a large enough effect; inconclusive means small, poorly fitted or top-dose-only effect; inactive means no such curve, though single readings can be large or run the other way. A potency beside an inconclusive call is a rough fit, not a confirmed value.

Assay: qHTS Assay for Identifying a Potential Treatment of Ataxia-Telangiectasia; further: nearly all actives have a fitted effect of over 45% in size
Settings: […] A-T fibroblasts, KAP-1 phosphorylation AlphaLISA, neocarzinostatin DNA damage 30 min before lysis; series mostly up to 57.5 µM
In short: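 ATM-like activity read as KAP-1 phosphorylation via AlphaLISA donor/acceptor antibody pairs after lysis and 6 hr at 25C. Cells were ATM-null patient fibroblasts ([…], hTERT), dosed 60 min, then exposed to the DSB inducer NCS for 30 min.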
Potency means the concentration at half of the fitted maximal effect.

SMILES	Potency
Cc1cc(C)n2nc(C(=O)OCCOc3ccc(F)cc3)nc2n1	inconclusive: 10 µM [activator, partial curve]
CCC(=O)Nc1ccc(S(=O)(=O)c2ccc(NC(=O)CC)cc2)cc1	inconclusive: 3.55 µM [activator, partial curve]
O=C(Cn1nnc2ccccc21)c1ccc([N+](=O)[O-])cc1	inconclusive: 39.8 µM [activator, single point]
CC(C)(C)OC(=O)N1CSC[C@H]1C(=O)NC[C@H](CC(=O)O)c1ccc(Cl)cc1	active: 7.08 µM
Cc1ccccc1NC(=O)Cn1nnc2sc3c(c2c1=O)CC(C)(C)OC3	inconclusive: 39.8 µM [activator, partial curve, poor fit]
Cc1cc(Nc2cccc(F)c2)nc(-c2ccccc2O)n1	inconclusive: 39.8 µM [activator, single point]
Cc1c(Br)cc(C(=O)OC2CCN(C)CC2)c(C)c1C	inconclusive: 8.91 µM [activator, partial curve]
CN(C)C(=O)COC(=O)/C=C/c1cn(-c2ccccc2)nc1-c1cccs1	inconclusive: 39.8 µM [activator, single point]
CCN1CCc2c(sc(NC(=O)Nc3ccc(Cl)c(Cl)c3)c2C(N)=O)C1	active: 25.1 µM
Oc1ccccc1/C=N/NC(=S)NCCc1ccccc1	inactive
COc1ccc(C(=O)C[n+]2ccc(N(C)C)cc2)cc1	inconclusive: 39.8 µM [activator, single point]
CCc1ccc(NC(=O)COC(=O)/C(=C/c2ccccc2OC)c2ccccc2)cc1	inactive
COc1ccccc1C(=O)Nc1cccc(S(=O)(=O)N2CCCC2)c1	inconclusive: 0.794 µM [activator, full curve, poor fit]
Cc1ccc(C)c(NS(=O)(=O)c2ccccc2C)c1	inactive
O=S(=O)(c1ccc(F)cc1)N1CCn2c(nc3ccccc32)C1	inactive
CCc1cc2c(=O)n(-c3ccccc3)c(SCC(=O)O)nc2s1	inconclusive: 3.16 µM [activator, partial curve]
CCSc1nc(-c2ccccc2)nc(C(Cl)Cl)n1	inconclusive: 20 µM [activator, single point]
Cc1ccc(-c2nc3c(c(=O)[nH]c(=O)n3Cc3ccccc3)n2C)o1	inactive
CC(C)(CO)Cc1cc(C(C)(C)C)c(O)c(C(C)(C)C)c1	inconclusive: 39.8 µM [activator, single point]
CC1=CC(C)(C)N(C(=O)c2ccccc2)c2ccc(C)cc21	inconclusive: 39.8 µM [activator, single point]
Oc1ccccc1-c1nc2c3ccccc3c3ccccc3c2[nH]1	inconclusive: 17.8 µM [activator, single point]
CCCCCc1nc2ccccc2c(=O)n1N	inconclusive: 3.55 µM [activator, partial curve]

SMILES	Potency
Cc1cc(N2CCCC2)nc2ccc(NC(=S)NCCCN3CCC(C)CC3)cc12	inactive
Cc1ccc(NC(=O)C2=C(c3ccccc3)S(=O)(=O)CCS2(=O)=O)cc1	inconclusive: 7.08 µM [activator, single point]
CCCCn1c(N)c(N(CCC(C)C)C(=O)c2ccc(-c3ccc([N+](=O)[O-])cc3)o2)c(=O)[nH]c1=O	inconclusive: 39.8 µM [activator, single point]
Cc1ccc(S(=O)(=O)N2CCOCC2)cc1NC(=O)COC(=O)c1cc(=O)c2ccccc2o1	inconclusive: 6.31 µM [activator, single point]
Oc1ccc(C2=NN(c3ccccc3)C(c3ccc(F)cc3)C2)cc1 (centres undefined)	inactive
COc1ccc(-c2sc3ccc(N4CCOCC4)cc3c2C#CC2(O)CCCCC2)cc1	inconclusive: 22.4 µM [activator, partial curve]
Cc1[nH]c2ccccc2c1C(=O)C(C)Sc1nnc(C2CC2)o1 (centres undefined)	inconclusive: 28.2 µM [activator, single point]
Fc1cccc(CSc2nc3ncc(Cl)cc3[nH]2)c1	inconclusive: 0.708 µM [activator, full curve, poor fit]
O=C(NCc1ccccc1C(F)(F)F)C1CC(c2ccccc2C(F)(F)F)=NO1 (centres undefined)	inconclusive: 39.8 µM [activator, single point]
CCN(CC)c1ccc2c(C)c(CN3CCOCC3)c(=O)oc2c1	inconclusive: 39.8 µM [activator, single point]
Cc1ccc(-c2csc3ncn(-n4c(C)ccc4C)c(=O)c23)o1	inactive
OC(CN1CCN(c2ccccc2)CC1)c1ccc2c(c1)CCN2 (centres undefined)	inconclusive: 5.62 µM [activator, single point]
CCOc1cc(/C=C/c2nc3ccccc3c(=O)[nH]2)ccc1O	inconclusive: 0.708 µM [activator, full curve]
CCn1c2ccccc2c2c3ncc4cccn4c3ccc21	inconclusive: 0.708 µM [activator, full curve, poor fit]
COC(=O)c1ccc(-c2nc(-c3cccs3)no2)cc1	inconclusive: 35.5 µM [activator, single point]
CCOc1cc(/C=C/C(=O)c2ccc(OC)c(CN3CCOCC3)c2)cc(Br)c1O	inactive
O=C(N/N=C/c1ccncc1)c1cc2ccccc2cc1O	inactive
N#CCCC1CCCC=C1N(Cc1ccccc1)C(=O)C(Cl)Cl (centres undefined)	inconclusive: 39.8 µM [activator, partial curve, poor fit]
COc1ccc(Cl)cc1/C=C/c1ccc2cccc(O)c2n1	inconclusive: 0.631 µM [activator, full curve, poor fit]
CC1(C)CC(=O)C(Sc2nnc(-c3ccc(O)cc3)n2CC2CCCO2)C(=O)C1 (centres undefined)	inconclusive: 39.8 µM [activator, single point]
Cc1ccc(NC(=O)c2c(C)nn(-c3ccccc3)c2Cl)c(C)c1	inconclusive: 28.2 µM [activator, single point]
Cc1ccc(/C=N/Nc2cc(C)nc(N3CCOCC3)n2)cc1	inconclusive: 39.8 µM [activator, partial curve]

Sorted by count of non-hydrogen atoms (rising): some entries from above.
SMILES	Potency
Fc1cccc(CSc2nc3ncc(Cl)cc3[nH]2)c1	inconclusive: 0.708 µM [activator, full curve, poor fit]
Cc1c(Br)cc(C(=O)OC2CCN(C)CC2)c(C)c1C	inconclusive: 8.91 µM [activator, partial curve]
Oc1ccccc1/C=N/NC(=S)NCCc1ccccc1	inactive
Cc1cc(Nc2cccc(F)c2)nc(-c2ccccc2O)n1	inconclusive: 39.8 µM [activator, single point]
O=S(=O)(c1ccc(F)cc1)N1CCn2c(nc3ccccc32)C1	inactive
Oc1ccccc1-c1nc2c3ccccc3c3ccccc3c2[nH]1	inconclusive: 17.8 µM [activator, single point]
Oc1ccc(C2=NN(c3ccccc3)C(c3ccc(F)cc3)C2)cc1 (centres undefined)	inactive
Cc1ccc(NC(=O)C2=C(c3ccccc3)S(=O)(=O)CCS2(=O)=O)cc1	inconclusive: 7.08 µM [activator, single point]
CN(C)C(=O)COC(=O)/C=C/c1cn(-c2ccccc2)nc1-c1cccs1	inconclusive: 39.8 µM [activator, single point]
CC(C)(C)OC(=O)N1CSC[C@H]1C(=O)NC[C@H](CC(=O)O)c1ccc(Cl)cc1	active: 7.08 µM
CCc1ccc(NC(=O)COC(=O)/C(=C/c2ccccc2OC)c2ccccc2)cc1	inactive
Cc1ccc(S(=O)(=O)N2CCOCC2)cc1NC(=O)COC(=O)c1cc(=O)c2ccccc2o1	inconclusive: 6.31 µM [activator, single point]
